Laboratory results from publication PMC3762332.

Protein sequences, listed by entry. Tags and fused reporters are not part of them. Lines headed by an entry give the natural chain unless they say otherwise; changes in a name come on top.
UniProt P20719: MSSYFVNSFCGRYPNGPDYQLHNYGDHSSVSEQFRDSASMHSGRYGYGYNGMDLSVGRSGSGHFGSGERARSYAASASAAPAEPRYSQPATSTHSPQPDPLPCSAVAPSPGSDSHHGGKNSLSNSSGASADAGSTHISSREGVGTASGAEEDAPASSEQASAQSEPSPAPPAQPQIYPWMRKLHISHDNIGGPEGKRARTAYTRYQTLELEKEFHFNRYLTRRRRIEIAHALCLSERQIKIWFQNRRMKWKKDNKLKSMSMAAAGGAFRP
UniProt Q9BWM5: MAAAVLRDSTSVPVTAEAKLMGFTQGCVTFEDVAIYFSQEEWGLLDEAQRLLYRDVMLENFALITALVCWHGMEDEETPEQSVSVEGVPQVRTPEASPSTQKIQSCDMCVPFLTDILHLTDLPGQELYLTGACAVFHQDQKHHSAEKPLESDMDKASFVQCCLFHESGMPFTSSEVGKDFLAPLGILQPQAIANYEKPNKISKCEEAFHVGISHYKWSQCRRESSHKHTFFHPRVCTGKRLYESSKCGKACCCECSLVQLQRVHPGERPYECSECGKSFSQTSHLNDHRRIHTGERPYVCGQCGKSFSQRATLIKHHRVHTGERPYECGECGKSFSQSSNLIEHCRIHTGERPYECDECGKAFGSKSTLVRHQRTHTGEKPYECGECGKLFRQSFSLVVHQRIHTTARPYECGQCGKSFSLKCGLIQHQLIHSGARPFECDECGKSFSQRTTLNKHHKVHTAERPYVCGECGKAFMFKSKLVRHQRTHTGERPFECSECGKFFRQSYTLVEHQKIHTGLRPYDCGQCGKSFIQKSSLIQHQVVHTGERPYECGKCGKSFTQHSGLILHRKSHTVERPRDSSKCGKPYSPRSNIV
UniProt Q15583: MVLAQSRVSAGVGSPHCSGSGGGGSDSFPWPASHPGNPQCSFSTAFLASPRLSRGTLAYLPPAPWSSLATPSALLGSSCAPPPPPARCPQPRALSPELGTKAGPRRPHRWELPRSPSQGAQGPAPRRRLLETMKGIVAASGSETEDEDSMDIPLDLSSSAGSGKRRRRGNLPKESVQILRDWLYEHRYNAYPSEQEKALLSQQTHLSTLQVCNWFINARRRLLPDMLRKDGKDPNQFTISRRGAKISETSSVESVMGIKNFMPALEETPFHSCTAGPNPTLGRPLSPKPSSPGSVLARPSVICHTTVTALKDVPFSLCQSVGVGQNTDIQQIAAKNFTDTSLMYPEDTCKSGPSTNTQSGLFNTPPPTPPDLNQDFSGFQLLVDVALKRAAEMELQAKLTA
UniProt O00716: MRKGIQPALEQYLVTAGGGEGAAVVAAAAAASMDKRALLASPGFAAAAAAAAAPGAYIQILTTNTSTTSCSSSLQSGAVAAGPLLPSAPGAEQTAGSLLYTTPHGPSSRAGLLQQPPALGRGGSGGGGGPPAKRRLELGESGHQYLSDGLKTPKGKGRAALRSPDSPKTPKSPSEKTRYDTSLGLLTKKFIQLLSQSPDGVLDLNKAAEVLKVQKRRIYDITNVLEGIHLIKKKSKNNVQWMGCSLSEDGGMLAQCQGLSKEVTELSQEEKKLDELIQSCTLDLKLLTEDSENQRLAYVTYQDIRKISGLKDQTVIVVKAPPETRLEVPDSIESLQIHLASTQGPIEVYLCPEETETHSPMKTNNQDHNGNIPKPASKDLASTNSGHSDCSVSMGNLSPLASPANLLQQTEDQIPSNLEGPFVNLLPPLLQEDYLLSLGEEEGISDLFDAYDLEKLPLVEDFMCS
UniProt P43694: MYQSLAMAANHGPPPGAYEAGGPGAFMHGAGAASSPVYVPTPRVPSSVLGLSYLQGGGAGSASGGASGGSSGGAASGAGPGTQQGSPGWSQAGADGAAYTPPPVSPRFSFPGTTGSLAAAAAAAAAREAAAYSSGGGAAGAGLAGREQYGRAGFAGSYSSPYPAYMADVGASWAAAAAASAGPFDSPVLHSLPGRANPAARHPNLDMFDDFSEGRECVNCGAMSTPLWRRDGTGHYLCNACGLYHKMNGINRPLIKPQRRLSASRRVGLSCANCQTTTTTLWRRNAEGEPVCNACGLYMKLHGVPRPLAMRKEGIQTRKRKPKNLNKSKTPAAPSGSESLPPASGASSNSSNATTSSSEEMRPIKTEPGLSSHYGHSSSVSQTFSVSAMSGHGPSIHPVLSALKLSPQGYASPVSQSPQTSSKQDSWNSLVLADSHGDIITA
UniProt Q8NC26: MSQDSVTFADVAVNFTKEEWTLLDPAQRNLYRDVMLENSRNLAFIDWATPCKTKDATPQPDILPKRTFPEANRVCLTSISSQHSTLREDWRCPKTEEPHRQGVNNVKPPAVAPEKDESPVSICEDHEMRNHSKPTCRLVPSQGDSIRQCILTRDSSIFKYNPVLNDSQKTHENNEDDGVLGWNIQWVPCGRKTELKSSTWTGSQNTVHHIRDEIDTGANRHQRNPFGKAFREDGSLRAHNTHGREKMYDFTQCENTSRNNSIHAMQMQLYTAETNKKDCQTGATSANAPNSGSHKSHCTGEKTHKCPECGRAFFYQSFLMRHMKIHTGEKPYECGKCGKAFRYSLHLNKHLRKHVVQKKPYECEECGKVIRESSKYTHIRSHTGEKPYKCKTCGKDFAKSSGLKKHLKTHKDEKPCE
UniProt P19793: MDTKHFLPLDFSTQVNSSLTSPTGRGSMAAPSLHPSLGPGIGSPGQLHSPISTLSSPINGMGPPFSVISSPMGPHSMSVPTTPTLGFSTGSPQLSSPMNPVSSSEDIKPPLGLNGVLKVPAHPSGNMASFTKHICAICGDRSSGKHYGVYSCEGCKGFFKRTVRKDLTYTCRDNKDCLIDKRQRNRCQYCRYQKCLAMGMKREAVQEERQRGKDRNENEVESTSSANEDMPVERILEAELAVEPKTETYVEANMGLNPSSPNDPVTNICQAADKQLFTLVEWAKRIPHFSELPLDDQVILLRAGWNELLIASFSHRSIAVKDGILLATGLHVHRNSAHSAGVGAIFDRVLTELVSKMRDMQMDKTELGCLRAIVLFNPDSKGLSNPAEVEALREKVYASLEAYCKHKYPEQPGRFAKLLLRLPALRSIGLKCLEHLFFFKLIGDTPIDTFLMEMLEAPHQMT
UniProt P37231: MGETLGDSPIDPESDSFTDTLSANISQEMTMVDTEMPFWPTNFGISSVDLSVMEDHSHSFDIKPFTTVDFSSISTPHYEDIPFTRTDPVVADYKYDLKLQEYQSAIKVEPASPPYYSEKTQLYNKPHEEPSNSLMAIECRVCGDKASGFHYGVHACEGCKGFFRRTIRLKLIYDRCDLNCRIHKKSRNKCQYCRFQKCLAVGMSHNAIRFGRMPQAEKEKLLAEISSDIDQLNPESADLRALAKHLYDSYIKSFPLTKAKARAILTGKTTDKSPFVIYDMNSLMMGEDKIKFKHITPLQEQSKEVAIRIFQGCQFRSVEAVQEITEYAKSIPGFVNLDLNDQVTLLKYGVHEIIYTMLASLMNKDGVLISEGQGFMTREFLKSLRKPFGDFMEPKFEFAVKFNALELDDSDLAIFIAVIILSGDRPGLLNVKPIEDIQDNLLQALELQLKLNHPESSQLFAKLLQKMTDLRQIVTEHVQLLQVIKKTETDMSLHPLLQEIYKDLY
UniProt Q8IW36: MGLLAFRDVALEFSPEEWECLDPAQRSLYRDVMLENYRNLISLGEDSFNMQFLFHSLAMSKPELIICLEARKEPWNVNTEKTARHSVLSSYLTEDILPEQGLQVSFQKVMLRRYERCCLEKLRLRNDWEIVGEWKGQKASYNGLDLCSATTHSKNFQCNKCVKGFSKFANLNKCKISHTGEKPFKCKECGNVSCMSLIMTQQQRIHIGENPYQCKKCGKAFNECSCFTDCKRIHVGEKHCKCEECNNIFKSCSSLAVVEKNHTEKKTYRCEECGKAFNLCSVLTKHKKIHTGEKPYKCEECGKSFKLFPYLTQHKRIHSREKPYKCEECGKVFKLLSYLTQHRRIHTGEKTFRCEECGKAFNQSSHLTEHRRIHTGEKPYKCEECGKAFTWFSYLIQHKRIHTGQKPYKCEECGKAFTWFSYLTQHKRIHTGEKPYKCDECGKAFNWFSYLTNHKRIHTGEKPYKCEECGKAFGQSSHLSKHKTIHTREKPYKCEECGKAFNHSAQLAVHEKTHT
UniProt Q9Y2L8: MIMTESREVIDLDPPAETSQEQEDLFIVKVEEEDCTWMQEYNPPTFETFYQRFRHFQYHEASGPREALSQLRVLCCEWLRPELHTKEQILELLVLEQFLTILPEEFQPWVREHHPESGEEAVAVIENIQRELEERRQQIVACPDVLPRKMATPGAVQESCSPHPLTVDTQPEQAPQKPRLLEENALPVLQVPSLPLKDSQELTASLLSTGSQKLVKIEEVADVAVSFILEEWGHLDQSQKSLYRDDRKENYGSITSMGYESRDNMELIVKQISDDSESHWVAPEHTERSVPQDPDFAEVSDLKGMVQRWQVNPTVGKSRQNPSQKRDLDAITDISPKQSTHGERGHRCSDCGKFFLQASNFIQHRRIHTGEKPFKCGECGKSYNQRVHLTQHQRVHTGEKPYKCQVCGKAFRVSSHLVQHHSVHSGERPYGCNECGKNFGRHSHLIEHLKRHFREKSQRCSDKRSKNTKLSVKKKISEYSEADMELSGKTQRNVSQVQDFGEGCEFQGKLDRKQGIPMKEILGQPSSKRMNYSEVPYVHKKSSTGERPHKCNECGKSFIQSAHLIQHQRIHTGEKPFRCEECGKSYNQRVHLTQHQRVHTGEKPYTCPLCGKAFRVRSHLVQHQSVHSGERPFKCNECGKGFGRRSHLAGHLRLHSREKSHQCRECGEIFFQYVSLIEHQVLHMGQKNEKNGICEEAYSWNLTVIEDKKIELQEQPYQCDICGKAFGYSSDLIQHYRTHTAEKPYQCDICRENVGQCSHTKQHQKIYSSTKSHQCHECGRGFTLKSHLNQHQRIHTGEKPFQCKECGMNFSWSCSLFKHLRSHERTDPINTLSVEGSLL
UniProt P05549: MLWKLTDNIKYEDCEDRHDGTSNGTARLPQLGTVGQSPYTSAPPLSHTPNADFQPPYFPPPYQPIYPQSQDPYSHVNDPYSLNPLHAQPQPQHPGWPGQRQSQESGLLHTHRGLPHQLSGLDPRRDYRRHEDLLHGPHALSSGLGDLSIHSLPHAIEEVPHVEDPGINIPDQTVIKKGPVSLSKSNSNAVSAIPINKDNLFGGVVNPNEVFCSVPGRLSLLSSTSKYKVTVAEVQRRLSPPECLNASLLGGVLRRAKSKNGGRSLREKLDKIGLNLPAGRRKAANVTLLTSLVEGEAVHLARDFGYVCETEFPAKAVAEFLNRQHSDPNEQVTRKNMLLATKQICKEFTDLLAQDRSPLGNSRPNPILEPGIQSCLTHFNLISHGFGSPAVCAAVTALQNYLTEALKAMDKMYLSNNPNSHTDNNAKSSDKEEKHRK
UniProt P23771: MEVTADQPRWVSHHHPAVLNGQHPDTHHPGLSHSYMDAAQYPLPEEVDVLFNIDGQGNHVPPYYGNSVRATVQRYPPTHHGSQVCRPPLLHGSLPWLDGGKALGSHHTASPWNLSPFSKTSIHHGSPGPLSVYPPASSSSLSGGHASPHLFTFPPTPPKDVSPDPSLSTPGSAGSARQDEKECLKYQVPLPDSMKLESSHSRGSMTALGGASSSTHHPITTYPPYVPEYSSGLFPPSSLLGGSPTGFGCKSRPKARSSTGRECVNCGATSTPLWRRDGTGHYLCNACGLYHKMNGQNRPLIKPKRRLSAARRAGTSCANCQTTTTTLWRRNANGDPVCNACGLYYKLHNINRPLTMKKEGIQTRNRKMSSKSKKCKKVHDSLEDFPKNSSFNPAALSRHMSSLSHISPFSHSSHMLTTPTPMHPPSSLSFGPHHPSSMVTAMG

Experiments:
Experiment in all cases: protein microarray
Settings in all cases: 10-fold cold unmethylated competitor; 5mC at CpG (SssI, both strands); recombinant protein; protein details: GST (N-terminal); label: Cy5
HOXA5 (Homo sapiens) = HOXA5 (Homo sapiens) (UniProt P20719)
ZNF416 (Homo sapiens) = ZNF416 (Homo sapiens) (UniProt Q9BWM5)
SCAPER (Homo sapiens) = target: T1, SCAPER (Homo sapiens) (UniProt Q9BY12)
T1 sequence (looked up, limits assumed): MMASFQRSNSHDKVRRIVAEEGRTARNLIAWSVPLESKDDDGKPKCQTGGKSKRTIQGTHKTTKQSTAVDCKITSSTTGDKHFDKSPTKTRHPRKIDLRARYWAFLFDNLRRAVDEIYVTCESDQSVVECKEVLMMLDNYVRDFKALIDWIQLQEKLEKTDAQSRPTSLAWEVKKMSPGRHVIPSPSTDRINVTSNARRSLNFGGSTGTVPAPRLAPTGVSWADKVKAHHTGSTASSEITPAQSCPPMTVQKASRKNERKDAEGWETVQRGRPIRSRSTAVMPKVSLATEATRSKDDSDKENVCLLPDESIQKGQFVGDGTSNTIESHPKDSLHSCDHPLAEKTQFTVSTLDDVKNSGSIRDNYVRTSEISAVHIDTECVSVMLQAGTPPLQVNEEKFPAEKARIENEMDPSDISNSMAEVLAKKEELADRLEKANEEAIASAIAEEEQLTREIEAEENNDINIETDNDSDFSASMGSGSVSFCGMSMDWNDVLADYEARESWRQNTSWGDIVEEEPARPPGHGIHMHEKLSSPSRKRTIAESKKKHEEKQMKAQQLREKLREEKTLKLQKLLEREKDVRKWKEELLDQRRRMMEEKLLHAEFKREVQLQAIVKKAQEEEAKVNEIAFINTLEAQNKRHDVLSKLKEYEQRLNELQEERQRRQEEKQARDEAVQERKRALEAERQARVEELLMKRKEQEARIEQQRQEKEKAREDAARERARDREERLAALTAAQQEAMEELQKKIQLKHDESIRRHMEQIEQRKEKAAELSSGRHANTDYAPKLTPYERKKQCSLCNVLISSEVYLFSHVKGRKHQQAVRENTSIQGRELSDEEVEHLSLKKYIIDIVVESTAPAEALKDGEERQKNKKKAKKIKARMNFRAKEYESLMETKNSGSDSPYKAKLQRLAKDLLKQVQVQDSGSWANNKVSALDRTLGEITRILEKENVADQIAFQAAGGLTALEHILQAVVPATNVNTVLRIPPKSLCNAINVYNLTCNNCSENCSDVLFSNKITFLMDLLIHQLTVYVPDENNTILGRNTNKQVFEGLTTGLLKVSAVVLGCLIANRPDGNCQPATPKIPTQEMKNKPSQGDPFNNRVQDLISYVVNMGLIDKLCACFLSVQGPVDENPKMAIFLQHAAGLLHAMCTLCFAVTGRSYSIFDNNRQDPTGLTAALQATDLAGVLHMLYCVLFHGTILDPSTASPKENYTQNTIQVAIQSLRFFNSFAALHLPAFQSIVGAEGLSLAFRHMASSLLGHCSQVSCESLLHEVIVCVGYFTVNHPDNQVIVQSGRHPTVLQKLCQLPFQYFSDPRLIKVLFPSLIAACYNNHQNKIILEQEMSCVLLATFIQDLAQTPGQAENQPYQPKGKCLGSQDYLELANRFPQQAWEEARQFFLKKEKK

TGIF1 (Homo sapiens) = TGIF1 (Homo sapiens) (UniProt Q15583)
E2F3 (Homo sapiens) = E2F3 (Homo sapiens) (UniProt O00716)
GATA4 (Homo sapiens) = GATA4 (Homo sapiens) (UniProt P43694)
ZNF114 (Homo sapiens) = ZNF114 (Homo sapiens) (UniProt Q8NC26)
NRF1 (Homo sapiens) = target: T2, NRF1 (Homo sapiens) (UniProt Q16656)
T2 sequence (looked up, limits assumed): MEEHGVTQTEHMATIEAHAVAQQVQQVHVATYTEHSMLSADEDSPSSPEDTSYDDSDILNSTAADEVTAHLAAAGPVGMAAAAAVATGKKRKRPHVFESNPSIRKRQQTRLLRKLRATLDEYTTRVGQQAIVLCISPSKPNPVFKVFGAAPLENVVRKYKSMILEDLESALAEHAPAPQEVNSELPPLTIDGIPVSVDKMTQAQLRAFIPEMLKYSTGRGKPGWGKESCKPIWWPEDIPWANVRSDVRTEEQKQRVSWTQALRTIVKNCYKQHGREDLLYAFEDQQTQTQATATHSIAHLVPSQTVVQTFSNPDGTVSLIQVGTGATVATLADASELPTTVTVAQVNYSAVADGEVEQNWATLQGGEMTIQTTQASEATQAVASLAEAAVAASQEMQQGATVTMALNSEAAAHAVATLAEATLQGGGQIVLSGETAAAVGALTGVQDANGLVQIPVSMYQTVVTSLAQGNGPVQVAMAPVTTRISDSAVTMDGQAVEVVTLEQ

RXRA (Homo sapiens) = RXRA (Homo sapiens) (UniProt P19793)
PPARG (Homo sapiens) = PPARG (Homo sapiens) (UniProt P37231)
RNF138 (Homo sapiens) = target: T3, RNF138 (Homo sapiens) (UniProt Q8WVD3)
T3 sequence (looked up, limits assumed): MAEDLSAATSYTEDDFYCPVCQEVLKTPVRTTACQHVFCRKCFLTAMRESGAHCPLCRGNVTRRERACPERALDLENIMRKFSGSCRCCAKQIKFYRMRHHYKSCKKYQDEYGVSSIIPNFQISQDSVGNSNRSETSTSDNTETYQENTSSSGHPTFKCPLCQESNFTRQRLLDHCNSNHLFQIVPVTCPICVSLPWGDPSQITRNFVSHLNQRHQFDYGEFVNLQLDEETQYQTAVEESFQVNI

ZNF695 (Homo sapiens) = ZNF695 (Homo sapiens) (UniProt Q8IW36)
ZCCHC7 (Homo sapiens) = target: T4, ZCCHC7 (Homo sapiens) (UniProt Q8N3Z6)
T4 sequence (looked up, limits assumed): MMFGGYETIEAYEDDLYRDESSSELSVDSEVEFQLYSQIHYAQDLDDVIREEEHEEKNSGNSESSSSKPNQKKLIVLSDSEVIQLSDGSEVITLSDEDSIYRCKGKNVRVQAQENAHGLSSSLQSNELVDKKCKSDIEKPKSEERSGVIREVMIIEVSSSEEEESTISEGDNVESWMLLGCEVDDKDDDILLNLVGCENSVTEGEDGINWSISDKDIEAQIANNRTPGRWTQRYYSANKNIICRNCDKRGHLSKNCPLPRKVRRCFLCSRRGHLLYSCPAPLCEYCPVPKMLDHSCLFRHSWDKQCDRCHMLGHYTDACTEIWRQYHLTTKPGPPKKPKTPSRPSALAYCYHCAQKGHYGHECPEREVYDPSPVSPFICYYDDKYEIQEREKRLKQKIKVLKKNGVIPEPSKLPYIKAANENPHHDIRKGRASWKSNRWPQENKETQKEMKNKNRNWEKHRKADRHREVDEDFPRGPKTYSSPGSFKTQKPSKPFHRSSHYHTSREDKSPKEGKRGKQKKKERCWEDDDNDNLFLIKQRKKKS

ZKSCAN5 (Homo sapiens) = ZKSCAN5 (Homo sapiens) (UniProt Q9Y2L8)
TFAP2A (Homo sapiens) = TFAP2A (Homo sapiens) (UniProt P05549)
GATA3 (Homo sapiens) = GATA3 (Homo sapiens) (UniProt P23771)

Measured: binding result

AAGCGGACTTTAAGCGGACCCCTATAGTGAGTGCTATTA (double strand) [M442]
binds: HOXA5 (Homo sapiens) | ZNF416 (Homo sapiens) | SCAPER (Homo sapiens) | TGIF1 (Homo sapiens) | E2F3 (Homo sapiens) | GATA4 (Homo sapiens) | ZNF114 (Homo sapiens) | NRF1 (Homo sapiens) | RXRA (Homo sapiens) | PPARG (Homo sapiens) | RNF138 (Homo sapiens)

AGCGGATAGTTTAGCGGATAGCCCTATAGTGAGTGCTATTA (double strand) [M403]
binds: HOXA5 (Homo sapiens) | ZNF416 (Homo sapiens) | SCAPER (Homo sapiens) | TGIF1 (Homo sapiens) | ZNF695 (Homo sapiens) | E2F3 (Homo sapiens) | GATA4 (Homo sapiens) | ZNF114 (Homo sapiens) | RXRA (Homo sapiens) | PPARG (Homo sapiens) | RNF138 (Homo sapiens) | ZCCHC7 (Homo sapiens)

AGTTTCGACCCCAGTTTCGACCCCTATAGTGAGTGCTATTA (double strand) [M408]
binds: HOXA5 (Homo sapiens) | ZNF416 (Homo sapiens) | SCAPER (Homo sapiens) | TGIF1 (Homo sapiens) | ZNF695 (Homo sapiens) | E2F3 (Homo sapiens) | GATA4 (Homo sapiens) | ZNF114 (Homo sapiens) | ZKSCAN5 (Homo sapiens) | ZCCHC7 (Homo sapiens)

CACGTGAAACACGTGCCCTATAGTGAGTGCTATTA (double strand) [M35]
binds: HOXA5 (Homo sapiens) | ZNF416 (Homo sapiens) | SCAPER (Homo sapiens) | TGIF1 (Homo sapiens) | ZNF695 (Homo sapiens) | E2F3 (Homo sapiens) | GATA4 (Homo sapiens) | ZNF114 (Homo sapiens) | RNF138 (Homo sapiens) | ZCCHC7 (Homo sapiens)

CCCGTACTGAAACCCGTACTGCCCTATAGTGAGTGCTATTA (double strand) [M262]
binds: ZNF416 (Homo sapiens) | SCAPER (Homo sapiens) | ZNF695 (Homo sapiens) | E2F3 (Homo sapiens) | TFAP2A (Homo sapiens) | ZNF114 (Homo sapiens) | PPARG (Homo sapiens) | ZKSCAN5 (Homo sapiens)

CGCATGCGCAAACGCATGCGCCCCTATAGTGAGTGCTATTA (double strand) [M62]
binds: SCAPER (Homo sapiens) | TGIF1 (Homo sapiens) | ZNF114 (Homo sapiens)

CGCCTGCGGAAAACGCCTGCGGACCCTATAGTGAGTGCTATTA (double strand) [M28]
binds: HOXA5 (Homo sapiens) | TGIF1 (Homo sapiens)

CGTTTCCGTTTCGTTTCCGCCCTATAGTGAGTGCTATTA (double strand) [M328]
binds: TGIF1 (Homo sapiens) | ZNF114 (Homo sapiens)

CTAGTCGCTAAACTAGTCGCTCCCTATAGTGAGTGCTATTA (double strand) [M402]
binds: ZNF416 (Homo sapiens) | TGIF1 (Homo sapiens) | ZNF695 (Homo sapiens) | ZNF114 (Homo sapiens) | PPARG (Homo sapiens) | ZKSCAN5 (Homo sapiens)

GACGACGAAAAAGACGACGAACCCTATAGTGAGTGCTATTA (double strand) [M269]
binds: ZNF416 (Homo sapiens) | TGIF1 (Homo sapiens) | ZKSCAN5 (Homo sapiens)

GCAACGGAGAAAGCAACGGAGCCCTATAGTGAGTGCTATTA (double strand) [M271]
binds: ZNF416 (Homo sapiens) | ZNF695 (Homo sapiens) | TFAP2A (Homo sapiens) | GATA4 (Homo sapiens) | ZNF114 (Homo sapiens) | PPARG (Homo sapiens) | ZKSCAN5 (Homo sapiens)

GCAACGTGTTTTGCAACGTGTCCCTATAGTGAGTGCTATTA (double strand) [M392]
binds: ZNF416 (Homo sapiens) | TGIF1 (Homo sapiens) | ZNF695 (Homo sapiens) | ZNF114 (Homo sapiens)

GCTCGGTATTTGCTCGGTACCCTATAGTGAGTGCTATTA (double strand) [M453]
binds: HOXA5 (Homo sapiens) | ZNF416 (Homo sapiens) | SCAPER (Homo sapiens) | TGIF1 (Homo sapiens) | E2F3 (Homo sapiens) | GATA4 (Homo sapiens) | ZNF114 (Homo sapiens) | RXRA (Homo sapiens) | RNF138 (Homo sapiens)

GCTGCCTCCGAAAGGTTTGCTGCCTCCGAAAGGCCCTATAGTGAGTGCTATTA (double strand) [M388]
binds: HOXA5 (Homo sapiens) | ZNF416 (Homo sapiens) | SCAPER (Homo sapiens) | ZNF695 (Homo sapiens) | GATA4 (Homo sapiens) | ZNF114 (Homo sapiens) | RXRA (Homo sapiens) | PPARG (Homo sapiens) | RNF138 (Homo sapiens) | GATA3 (Homo sapiens)

GTCGTCGGCTTTGTCGTCGGCCCCTATAGTGAGTGCTATTA (double strand) [M400]
binds: HOXA5 (Homo sapiens) | ZNF416 (Homo sapiens) | SCAPER (Homo sapiens) | TGIF1 (Homo sapiens) | ZNF114 (Homo sapiens) | RNF138 (Homo sapiens)

TCGCCGCAAATCGCCGCCCCTATAGTGAGTGCTATTA (double strand) [M293]
binds: ZNF416 (Homo sapiens) | TGIF1 (Homo sapiens) | E2F3 (Homo sapiens) | NRF1 (Homo sapiens) | ZKSCAN5 (Homo sapiens)

For at least one entry, the source does not settle the construct or the ends of the probe. For part of these data: Tags and fusion partners may be left off the protein sequences shown.
